{"source": "patent US6762281", "about": "(dated 2004)", "key": {"peptide synthesis [1]": {"test": "peptide synthesis", "conditions": "conjugation step, Na+ / OAc- salt"}, "peptide synthesis [2]": {"test": "peptide synthesis", "conditions": "conjugation step, Na+ / OAc- salt", "remark": "listed apart in the source"}}, "note": "Where “and” joins values, the source holds several entries; their conditions need not be identical. Identical values can stand only once.", "data": [{"substance": "Conjugate of (TG)2ctat2c(tg)2A2T2 and Antennapaedia peptide (AcC(SH)-GABA-G2RQIKIWFQNR2MKWK2-amide) (SEQ ID NO: 7)", "values": [{"measurement": "conjugation yield", "setting": "peptide synthesis [1]", "value": 80, "unit": "%"}]}, {"substance": "SEQ ID No. 1 (13920-3′-Antp) conjugate; Antennapedia peptide: C(N-Ac)-GABA-GGRQIKIWFQNRLRMKWKK-amide", "values": [{"measurement": "final HPLC purity", "setting": "peptide synthesis [2]", "value": 95, "unit": "%"}, {"measurement": "conjugation yield", "setting": "peptide synthesis [2]; run 1", "value": "80% and 60%"}]}, {"substance": "SEQ ID No. 6 (102578-3′-RGD) conjugate; Bicyclic RGD peptide: 3-mercaptopropionyl-GABA-GGACDCRGDCFCG-amide", "values": [{"measurement": "conjugation yield", "setting": "peptide synthesis [1]", "value": 62, "unit": "%"}, {"measurement": "difficulty met", "setting": "peptide synthesis [1]", "value": "more than 40% of the starting material remained unreacted"}, {"measurement": "final LC-MS purity", "setting": "peptide synthesis [1]; reversed phase HPLC and ion exchange HPLC", "value": 75, "unit": "%"}]}]}
